The other results are listed elsewhere or left out. Shown are side measurements of this screen, not its main read-out; they come without a call. The list favours compounds with an active or inconclusive main result. Potencies come from curve fits of mixed quality, noted in brackets.
Assay: qHTS Assay for Lipid Storage Modulators in Drosophila S3 Cells;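 as to cell number change: cells counted by Cell Tracker Red CMTPX staining in the red channel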
Conditions: BODIPY lipid droplet fluorescence, 18-24 h; for cell number change: measured here: cell count max response, cells fed with added oleic acid
Outline: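 Drosophila S3 cells loaded with oleic acid (400 uM, as added) and compounds at several concentrations; lipid droplets imaged by 488-nm laser-scanning cytometry, 500–530 nm intensity and object ratio to cell channel. Percent activity normalized to 20 uM Triacsin C.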

[1] = measured here: lipid fluorescence (Fed channel) AC50, cells fed with added oleic acid
[2] = measured here: cell number channel AC50, cells fed with added oleic acid

| Compound | cell number change [%] | AC50 [1] | AC50 [2] |
| --- | --- | --- | --- |
| CN(C)C(=O)CCSc1nnc(-c2ccco2)o1 | -34.6 | 0.731 µM [rising, single point] | – |
| CC(C)N(Cc1nccn1C)C(=O)CC1C(=O)NCCN1Cc1ccc(F)cc1 (stereo unspecified) | 11.2 | 14.6 µM [rising, partial curve] | – |
| Cc1cccc(-n2c(C)c(-c3ccccc3)[nH]c2=S)c1 | 1.62 | 29.1 µM [rising, single point] | – |
| CC(C)(C)C(=O)NC1CCN(CC(=O)Nc2ccc3c(c2)OCO3)CC1 | – | 0.411 µM [rising, full curve] | – |
| O=C(NCCCN1CCN(CCCNC(=O)c2cc([N+](=O)[O-])ccc2Cl)CC1)c1cc([N+](=O)[O-])ccc1Cl | 9.11 | 0.13 µM [rising, full curve, poor fit] | 3.66 µM [rising, single point] |
| COCCN(Cc1nc2ccccc2c(=O)[nH]1)C(=O)c1cccc(S(=O)(=O)N2CCCC2)c1 | -3.06 | – | – |
| Cc1cccc(C2NC(=O)c3ccccc3O2)c1 (stereo unspecified) | 35.5 | – | 2.31 µM [rising, partial curve, poor fit] |
| CC(C)n1c(SCc2ccccc2F)nc2c1c(=O)n(C)c(=O)n2C | -1.55 | 5.8 µM [rising, single point] | – |
| N/C(=N\OC(=O)c1cccs1)c1cccc([N+](=O)[O-])c1 | 16.7 | 0.92 µM [rising, full curve, poor fit] | – |
| CN1CCC(=NNC(=O)c2ccc(N(Cc3ccccc3Cl)S(C)(=O)=O)cc2)CC1 | -8.35 | 6.51 µM [rising, single point] | – |
| CCN(CC)C(=O)Cn1c(=O)n(Cc2ccc(F)cc2)c(=O)c2sccc21 | 73.3 | 6.51 µM [rising, single point] | 25.9 µM [rising, partial curve] |
| S=C(Nc1cccnc1)N1CCCCC1 | -38.8 | 0.00651 µM [falling, full curve, poor fit] | – |
| CC(=O)N1N=C(c2ccccc2)CC1c1cn(Cc2ccccc2)c2ccccc12 (stereo unspecified) | 3.06 | 0.58 µM [rising, single point] | – |
| COc1ccccc1CNC(=O)CCNC(=O)C1CCN(S(=O)(=O)c2ccccc2)CC1 | 8.4 | 0.92 µM [rising, full curve, poor fit] | – |
| CC(=O)N1CCC(=NNS(=O)(=O)c2ccc(C)c([N+](=O)[O-])c2)CC1 | 37.7 | 2.91 µM [falling, full curve] | 0.00517 µM [rising, full curve, poor fit] |
| O=C(NCc1n[nH]c(=S)n1-c1ccc(Br)cc1)c1ccc(S(=O)(=O)N2CCCC2)cc1 | -3.61 | 3.26 µM [falling, single point] | 0.82 µM [falling, full curve, poor fit] |
| Cc1cc(C)n(-c2ccc(C(=O)Nc3ccc4c(c3)OCCO4)cc2)n1 | 138 | – | 20.6 µM [rising, single point] |
| CCC(C(=O)NCCc1ccco1)n1nc(C)c2c(C)n(-c3ccccc3)nc2c1=O (stereo unspecified) | -8.37 | – | – |
| Cc1ccc(C)c(COC(=O)c2cc(S(=O)(=O)N3CCCCC3)ccc2N2CCOCC2)c1 | -3.68 | 0.731 µM [rising, single point] | – |
| COCCn1c(=S)[nH]c2ccccc21 | – | 6.51 µM [falling, single point] | 6.51 µM [falling, single point] |

Rewritten as comma-separated lines: part of the list above.
Compound,cell number change [%],AC50 [1],AC50 [2]
CN(C)C(=O)CCSc1nnc(-c2ccco2)o1,-34.6,"0.731 µM [rising, single point]",–
CC(C)N(Cc1nccn1C)C(=O)CC1C(=O)NCCN1Cc1ccc(F)cc1 (stereo unspecified),11.2,"14.6 µM [rising, partial curve]",–
CC(C)(C)C(=O)NC1CCN(CC(=O)Nc2ccc3c(c2)OCO3)CC1,–,"0.411 µM [rising, full curve]",–
COCCN(Cc1nc2ccccc2c(=O)[nH]1)C(=O)c1cccc(S(=O)(=O)N2CCCC2)c1,-3.06,–,–
Cc1cccc(C2NC(=O)c3ccccc3O2)c1 (stereo unspecified),35.5,–,"2.31 µM [rising, partial curve, poor fit]"
N/C(=N\OC(=O)c1cccs1)c1cccc([N+](=O)[O-])c1,16.7,"0.92 µM [rising, full curve, poor fit]",–
CN1CCC(=NNC(=O)c2ccc(N(Cc3ccccc3Cl)S(C)(=O)=O)cc2)CC1,-8.35,"6.51 µM [rising, single point]",–
S=C(Nc1cccnc1)N1CCCCC1,-38.8,"0.00651 µM [falling, full curve, poor fit]",–
CC(=O)N1N=C(c2ccccc2)CC1c1cn(Cc2ccccc2)c2ccccc12 (stereo unspecified),3.06,"0.58 µM [rising, single point]",–
COc1ccccc1CNC(=O)CCNC(=O)C1CCN(S(=O)(=O)c2ccccc2)CC1,8.4,"0.92 µM [rising, full curve, poor fit]",–
CC(=O)N1CCC(=NNS(=O)(=O)c2ccc(C)c([N+](=O)[O-])c2)CC1,37.7,"2.91 µM [falling, full curve]","0.00517 µM [rising, full curve, poor fit]"
O=C(NCc1n[nH]c(=S)n1-c1ccc(Br)cc1)c1ccc(S(=O)(=O)N2CCCC2)cc1,-3.61,"3.26 µM [falling, single point]","0.82 µM [falling, full curve, poor fit]"
Cc1cc(C)n(-c2ccc(C(=O)Nc3ccc4c(c3)OCCO4)cc2)n1,138,–,"20.6 µM [rising, single point]"
CCC(C(=O)NCCc1ccco1)n1nc(C)c2c(C)n(-c3ccccc3)nc2c1=O (stereo unspecified),-8.37,–,–

(next part)

| Compound | cell number change [%] | AC50 [1] | AC50 [2] |
| --- | --- | --- | --- |
| O=C1CC2(CCN(C(=O)C3CC(=O)N(c4ccccc4)C3)CC2)Oc2ccccc21 (stereo unspecified) | -5.55 | 3.26 µM [falling, single point] | 3.66 µM [falling, single point] |
| COc1ccc(CNCCC(c2ccc(F)cc2)c2ccc(OC)cc2)cc1 (stereo unspecified) | -66.7 | – | 6.51 µM [falling, partial curve] |
| COc1ccc(OCCNS(=O)(=O)Cc2ccccc2)cc1 | 2.42 | 0.184 µM [rising, full curve, poor fit] | – |
| CCCC(C(=O)Nc1ccc(C)c(S(=O)(=O)N2CCOCC2)c1)c1ccccc1 (stereo unspecified) | – | 5.8 µM [rising, partial curve, poor fit] | – |
| CC(=O)NC(CC(=O)NC(C)c1ccc(Cl)cc1Cl)c1ccccc1 (stereo unspecified) | 24.7 | – | – |
| O=C(CSc1nc2ccccc2c(=O)[nH]1)N1CCN(c2ccccc2)CC1 | -18.8 | – | – |
| COc1cc(OC)cc(-c2nnc(SCC(=O)Nc3ccc(C(=O)O)cc3)s2)c1 | – | 0.206 µM [falling, full curve, poor fit] | 0.366 µM [falling, full curve, poor fit] |
| Cc1cc(C(=O)OC(C)C(=O)NC2CCCCC2C)c(C)o1 (stereo unspecified) | -25 | – | 3.26 µM [falling, full curve, poor fit] |
| O=c1c(-c2ccc(Cl)cc2)cnc2n1CCS2 | 129 | 29.1 µM [rising, partial curve] | 29.1 µM [rising, single point] |
| S=C(Nc1ccccc1)Nn1cnnc1 | – | 0.58 µM [falling, single point] | – |
| C=CCOc1c(Br)cc(C2C3=C(CCCC3=O)N(C)C3=C2C(=O)CCC3)cc1OCC | 47.2 | 29.1 µM [rising, single point] | 0.116 µM [falling, full curve, poor fit] |
| COC(=O)c1cccc(NS(=O)(=O)c2ccc(OC)cc2)c1C | – | 29.1 µM [falling, single point] | – |
| Cc1ccc(Cl)cc1NC(=O)COC(=O)CC1CC2CCC1C2 (stereo unspecified) | -10.1 | 7.31 µM [falling, single point] | – |
| O=C(CCCCn1c(=O)c2ccccc2n(Cc2ccccc2)c1=O)NC1CCN(Cc2ccccc2)CC1 | -18.3 | – | – |
| COc1ccc(Cc2nnc(NS(=O)(=O)Cc3ccccc3)s2)cc1 | -6.64 | – | – |
| CCN(CC(=O)NCc1ccc(Cl)cc1)C(=O)CNS(=O)(=O)c1ccc(NC(C)=O)cc1 | 16.2 | 29.1 µM [falling, single point] | – |
| CC(=O)c1ccc(NC(=O)CN2C(=O)NC(C)(c3ccc4c(c3)OCCO4)C2=O)cc1 (stereo unspecified) | -9.77 | 32.6 µM [rising, single point] | – |
| N#Cc1ccc(OCC(=O)N(C2CCCCC2)C2CCS(=O)(=O)C2)cc1 (stereo unspecified) | -12.1 | – | – |
| CCSc1ncccc1-c1nc2ccccc2[nH]1 | – | 4.61 µM [rising, single point] | 0.82 µM [rising, single point] |
| O=C(NCCCN1CCOCC1)C1CCN(S(=O)(=O)c2ccccc2)CC1 | -24 | – | – |

| Compound | cell number change [%] | AC50 [1] | AC50 [2] |
| --- | --- | --- | --- |
| CCCN(C(=O)CSc1ncnc2sccc12)c1c(N)n(Cc2ccccc2)c(=O)[nH]c1=O | 21.9 | 0.731 µM [falling, single point] | – |
| COc1cc2c(cc1OC)C1O[C@](CCCCN3C(=O)c4ccccc4C3=O)(C2)OC2=C1C(=O)c1ccccc1C2=O | -12.5 | 0.0266 µM [falling, full curve, poor fit] | – |
| Cc1cccc(C(=O)OC(C)C(=O)Nc2ccc(S(=O)(=O)Nc3ncccn3)cc2)c1C (stereo unspecified) | 20.6 | 4.61 µM [rising, full curve, poor fit] | 6.51 µM [falling, partial curve, poor fit] |
| CNC(=S)N1CCN(C(c2ccccc2)c2ccccc2)CC1 | – | 0.731 µM [falling, single point] | – |
| O=C(O)Cc1sc(N/N=C\c2ccccc2)nc1-c1ccccc1 | 33.8 | – | 9.2 µM [rising, partial curve, poor fit] |
| Cc1[nH]nc2c1C(c1ccsc1)C(C#N)=C(N)O2 (stereo unspecified) | – | 6.51 µM [falling, single point] | – |
| CN(C)Cc1cccc([N+](=O)[O-])c1O | -6.62 | – | – |
| CC(C)c1cc(NCCCN2CCOCC2)n2c(nc3ccccc32)c1C#N | -17.7 | 0.00517 µM [falling, full curve, poor fit] | – |
| CNC(=S)N/N=C(\C)c1ccc(-n2ccnc2)cc1 | 15 | – | 0.0164 µM [rising, partial curve, poor fit] |
| CC(C)=CCC/C(C)=C/CCC(C)NCCN1CCNCC1 (stereo unspecified) | -33.5 | 16.4 µM [falling, single point] | 20.6 µM [falling, single point] |
| Cc1ccc(NCCC#N)cc1C | – | 0.651 µM [falling, full curve, poor fit] | – |
| CCNc1nc(Cl)nc(NNC(=O)C(C)Oc2ccccc2)n1 (stereo unspecified) | 10.3 | – | 4.11 µM [rising, single point] |
| CCC(=NCCc1c(C)[nH]c2ccc(C)cc12)C1=C(O)CC(c2ccccc2)CC1=O (stereo unspecified) | -15.4 | 29.1 µM [falling, single point] | – |
| Cc1ccc(S(=O)(=O)Nc2ccccc2F)cc1C(=O)NNC(=O)c1ccccc1O | -16.2 | 0.13 µM [falling, full curve, poor fit] | – |
| CCCOCC(O)CC(Cc1ccccc1)C(=O)NN (stereo unspecified) | 21.1 | 11.6 µM [rising, partial curve] | – |
| NC(=O)CC(NC(=O)c1ccccc1)c1ccc(N2CCC(N3CCCC3)CC2)c([N+](=O)[O-])c1 (stereo unspecified) | 2.1 | – | – |
| Cc1ccc2c(CC(=O)NNC(=O)c3ccccc3O)coc2c1 | -35.7 | – | 29.1 µM [falling, single point] |
| O=C(NNc1cc(N2CCOCC2)nc(N2CCOCC2)n1)C12CC3CC(CC(C3)C1)C2 | 4.35 | 29.1 µM [falling, single point] | – |
| C/C=C/c1c(F)c(F)c(Oc2ccc(C(=O)O)cc2)c(F)c1F | -5.73 | 6.51 µM [falling, single point] | 2.91 µM [falling, partial curve, poor fit] |

— PubChem BioAssay AID2685 (National Center for Advancing Translational Sciences (NCATS), 2010)
